Assay [1] has as its target FLAG-tagged-SDC2 (Syndecan-2) (UniProt P34741). The assay can be described thus: co-IP; HEK293T cells, transiently transfected for 48 h; RIPA-weak lysis buffer (1% NP-40, 0.25% sodium deoxycholate); anti-FLAG magnetic beads at 4 °C overnight; western blotting.
The next assay concerns the target SDC2 in GC cells (UniProt P34741). The assay can be described thus: co-IP; GC cells (AGS named for USP14); RIPA-weak lysis buffer (1% NP-40, 0.25% sodium deoxycholate); anti-FLAG magnetic beads at 4 °C overnight; western blotting. (In general: Immunoblotting shows a protein as a band on a membrane.)

Chains of the proteins cited; added tags and fusions are not shown. Residues count along the entry.
UniProt P34741, residues 19-201: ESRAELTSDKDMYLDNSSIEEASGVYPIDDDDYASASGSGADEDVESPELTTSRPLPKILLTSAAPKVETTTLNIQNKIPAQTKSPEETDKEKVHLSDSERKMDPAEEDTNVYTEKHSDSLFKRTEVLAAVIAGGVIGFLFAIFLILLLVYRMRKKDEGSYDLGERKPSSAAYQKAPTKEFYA

Results are given in words; binding and its absence hold for the method and conditions named. In cells and extracts the contact can be indirect. Some entries that bind do so weakly or less than the wild type. For some assays here: Sequences can lack the tags named with a protein.

B1: PH domain of PDK1 (HA-tagged-PDK1 recombinant construct) (domain or fragment, UniProt O15530 409-556)
chain: GSNIEQYIHDLDSNSFELDLQFSEDEKRLLLEKQAGGNPWHQFVENNLILKMGPVDKRKGLFARRRQLLLTEGPHLYYVDPVNKVLKGEIPWSQELRPEAKNFKTFFVHTPNRTYYLMDPSGNAHKWCRKIQEVWRQRYQSHPDAAVQ
As for B1, the binding result in assay [1] is “binds”.

B2: PDK1 in GC cells (protein, UniProt O15530 1-556)
chain: MARTTSQLYDAVPIQSSVVLCSCPSPSMVRTQTESSTPPGIPGGSRQGPAMDGTAAEPRPGAGSLQHAQPPPQPRKKRPEDFKFGKILGEGSFSTVVLARELATSREYAIKILEKRHIIKENKVPYVTRERDVMSRLDHPFFVKLYFTFQDDEKLYFGLSYAKNGELLKYIRKIGSFDETCTRFYTAEIVSALEYLHGKGIIHRDLKPENILLNEDMHIQITDFGTAKVLSPESKQARANSFVGTAQYVSPELLTEKSACKSSDLWALGCIIYQLVAGLPPFRAGNEYLIFQKIIKLEYDFPEKFFPKARDLVEKLLVLDATKRLGCEEMEGYGPLKAHPFFESVTWENLHQQTPPKLTAYLPAMSEDDEDCYGNYDNLLSQFGCMQVSSSSSSHSLSASDTGLPQRSGSNIEQYIHDLDSNSFELDLQFSEDEKRLLLEKQAGGNPWHQFVENNLILKMGPVDKRKGLFARRRQLLLTEGPHLYYVDPVNKVLKGEIPWSQELRPEAKNFKTFFVHTPNRTYYLMDPSGNAHKWCRKIQEVWRQRYQSHPDAAVQ
In the case of B2, the binding entry with SDC2 in GC cells is reported as “binds”.

The record behind these values is PMC10367555.
